Some entries share one result that the patent states for a list of compounds.
System: HCV replicon I389luc-ubi-neo/NS3-3'/ET in ET (Huh-lucubineo-ET) cells
Assay: Replicon assay (Biological Example 2), luciferase read-out
Format: cell-based
Conditions: luciferase activity 48 hours after compound addition
Experimental: A cell line, ET (Huh-lucubineo-ET) is used for screening of compounds for inhibiting HCV RNA dependent RNA polymerase. The ET cell line is stably transfected with RNA transcripts harboring a I389luc-ubi-neo/NS3-3′/ET; replicon with firefly luciferase-ubiquitin-neomycin phosphotransferase fusion protein and EMCV-IRES driven NS3-5B polyprotein containing the cell culture adaptive mutations (E1202G; […]; K1846T) (Krieger at al, 2001 and unpublished). The ET cells are grown in DMEM (Dulbeco's Modified Eagle's Medium), supplemented with 10% fetal calf serum, 2 mM Glutamine, Penicillin (100 IU/mL)/Streptomycin (100 μg/mL), 1× nonessential amino acids, and 250 μg/mL G418 (“Geneticin”). Reagents are all available through Life Technologies (Bethesda, Md.). The cells are plated at 0.5-1.0×10^4 cells/well in the 96 well plates and incubated for 24 hrs before adding test compound. The compounds are added to the cells to achieve a final concentration of 0.1 nM to 50 μM and a final DMSO (dimethylsulfoxide) concentration of 0.5%. Luciferase activity is measured 48 hours later by adding a lysis buffer and the substrate (Catalog number Glo-lysis buffer E2661 and Bright-Glo luciferase system E2620 Promega, Madison, Wis.). Cells should not be too confluent during the assay. […] EC50 values were calculated by fitting % inhibition at each concentration to the following equation: […]

With “6-{[3-(1,1-Dioxo-tetrahydro-1lambdathiophen-2-yl)-propyl]-methanesulfonyl-amino}-5-ethyl-2-(4-fluoro-phenyl)-furo[2,3-b]pyridine-3-carboxylic acid methylamide [Example 22.99]” the IC50 was ≤ 100 nM.

Source: US20120015907A1, “Furopyridine compounds and uses thereof” (NOVARTIS AG, priority 2010, published 2012)
